Patent publication US7960562B2, “Propane-1,3-dione derivative or salt thereof” (Astellas Pharma Inc., priority 2005, dated 2011)
Some results were stated once for a whole list of compounds, not compound by compound.

Test system: GnRH-induced blood testosterone increase
Test: Test for antagonistic effect to GnRH-induced blood testosterone increase reaction
Format: in vivo, Wistar male rats
Details: rats, oral 3 mg/kg, 2 or 6 hours prior to GnRH (30 ng/rat i.m.); serum testosterone 1 hour after GnRH

| Structure (SMILES) | inhibitory activity (IA) on GnRH-induced serum testosterone increase |
| --- | --- |
| C[C@@H](O)C(=N)NS(=O)(=O)c1cc(C(=O)C(C(=O)c2cccc(F)c2)=C2Nc3ccccc3N2)ccc1F [Example 696, (2R)-N-({5-[2-(1,3-dihydro-2H-benzimidazol-2-ylidene)-3-(3-fluorophenyl)-3-oxopropanoyl]-2-fluorophenyl}sulfonyl)-2-hydroxypropanimidamide] | at least 90% |
| CC(C)(O)C(=N)NS(=O)(=O)c1cccc(C(=O)C(C(=O)c2cccc(F)c2)=C2Nc3ccccc3N2)c1 [Example 211] | at least 90% |
| CC(C)(O)C(=N)NS(=O)(=O)c1cc(C(=O)C(C(=O)c2cccc(F)c2)=C2Nc3ccccc3N2)ccc1F [Example 662] | at least 90% |
